Data on one molecule can be found in patent US20120283189A1.

The target in experiment [1] is β1 Na+-K+ pump subunit of rabbit cardiac myocytes (rabbit). As to the kind of experiment: co-immunoprecipitation, β1 immunoblot of FXYD1 immunoprecipitate. A general note: Immunoblotting shows a protein as a band on a membrane.
For experiment [2] the target is unchanged. The experiment in a line: co-immunoprecipitation from rabbit myocytes, with and without Ang II.

These are yes or no findings as the source states them, for the method shown. Binding seen in cells or lysates may run through a third protein. Binding can be weak; no strength is given.

B1: native FXYD1 of rabbit cardiac myocytes (protein, UniProt G1TZA0 21-92, looked up)
chain: EAPQEQDPFTYDYQSLRIGGLIIAGILFILGILIILKRGAWERFDTARRTGEPDEEEGTFRSSIRRLSTRRR
B1: the binding result in experiment [1] and in experiment [2] was “binds” in each case.
